Assay results from PubChem BioAssay AID540276 (National Center for Advancing Translational Sciences (NCATS), 2011).
About 5,400 (1.8%) of roughly 300,000 compounds were called active. Inconclusive means that the source gave no clear call. Such entries were picked first, then a sample of the others. Calls come from the whole dose curve; tested in HEK293 cells. Where the call is inconclusive, the potency comes from a doubtful curve fit.
% is set by controls: 0 for no effect and ±100 for the full control effect; potency is the fitted concentration of half-maximal effect.

Test: qHTS for inhibitors of binding or entry into cells for Marburg Virus
Details: Marburg virus pseudotyped entry inhibition, cell reporter; activity change, negative = inhibition: at 37.8 µM (top of the series) unless noted
With `CCn1cc(C(=O)N2CCc3ccccc32)c(=O)c2cc(S(=O)(=O)N3CC(C)CC(C)C3)ccc21` (centres undefined) the Potency was inconclusive: 0.651 µM [inhibitor, partial curve, poor fit]. With `O=C(/C=C/c1ccccc1)c1c(O)n(CCc2ccccc2)c(=O)[nH]c1=O` the Potency was inconclusive: 0.231 µM [activator, single point]. With `O=C(Nc1cc2c(cc1Cl)OCCCO2)c1ccccc1` the Potency was inconclusive: 6.31 µM [activator, single point]. With `Cc1ccc(SCCCCN2CCOCC2)cc1` the Potency was inconclusive: 6.31 µM [inhibitor, partial curve, poor fit]. For `Cc1cc(C)n2nc(SC(C)C(=O)N3CC(C)OC(C)C3)nc2n1` (centres undefined), the “activity change, negative = inhibition” value was inactive: -1.87%. In the case of `CCOC(=O)c1cnc2c(F)ccc(F)c2c1Sc1ccccc1`, the Potency is reported as inconclusive: 35.5 µM [activator, partial curve, poor fit]. For `O=C(CCCSc1ccccc1)Nc1nc(-c2ccccn2)cs1`, the Potency was inconclusive: 10 µM [inhibitor, partial curve, poor fit]. For `CCOC(=O)C(C(=O)OCC)c1cc(Br)c2noc3c2c1C(=O)c1ccccc1-3`, the Potency was inconclusive: 22.4 µM [inhibitor, single point]. With `COc1cc(-c2nccc3cc4c(cc23)OCO4)cc(OC)c1OC` the Potency was inconclusive: 1.78 µM [inhibitor, partial curve, poor fit]. With `CCC(=O)N1N=C(c2c(O)n(CCc3ccccc3)c(=O)[nH]c2=O)CC1c1ccc(OC)c(OC)c1` (centres undefined) the Potency was inconclusive: 22.4 µM [inhibitor, single point]. For `Cn1cc([N+](=O)[O-])c(C(=O)Nc2ccc(-c3nc4ccccc4[nH]3)cc2)n1`, the Potency was inconclusive: 1.26 µM [activator, single point]. In the case of `O=S(=O)(Oc1ccccc1-c1ccccc1)c1ccccc1`, the Potency is reported as inconclusive: 35.5 µM [inhibitor, single point]. In the case of `Cc1cc(C)n(-c2ccc(C(=O)NC3CCCCC3)cc2)n1`, the Potency is reported as inconclusive: 5.01 µM [inhibitor, partial curve, poor fit]. With `COc1ccc(COC(=O)c2ccc(Br)c(S(=O)(=O)N3CCOCC3)c2)cc1F` the Potency was inconclusive: 11.2 µM [inhibitor, partial curve, poor fit]. In the case of `CC1(C)CC(c2nc(-c3ccccc3)cs2)CCS1` (centres undefined), the “activity change, negative = inhibition” value is reported as inactive: 6.04% [at 46.1 µM]. With `CCCC1=Nc2cc(C(=O)NCC(C)c3ccccc3)ccc2Sc2ccccc21` (centres undefined) the Potency was inconclusive: 0.794 µM [inhibitor, full curve, poor fit]. With `O=C(Cc1ccc(Cl)cc1)NC(=S)Nc1ccccc1N1CCOCC1` the Potency was inconclusive: 35.5 µM [inhibitor, single point]. With `CN(C(=O)c1ccccc1Cl)c1ccccc1C(=O)NCc1ccccc1` the “activity change, negative = inhibition” value was inactive: 0.578%. With `Cc1nc(SCC(=O)Nc2ccc(S(=O)(=O)N3CCOCC3)cc2)c2c(C)c(C)sc2n1` the Potency was inconclusive: 2 µM [inhibitor, full curve, poor fit]. In the case of `Cc1nn(-c2ccccc2)nc1C(N)=O`, the “activity change, negative = inhibition” value is reported as inactive: -3.52% [at 46.1 µM]. With `CN1C2=CC=CC=CC2=[N+](C)C12C=CC(=[N+]([O-])[O-])C=C2[N+](=O)[O-]` (centres undefined) the Potency was inconclusive: 35.5 µM [inhibitor, single point]. With `CN(C)C(=O)C12CCC(C)(c3nc4ccccc4nc31)C2(C)C` (centres undefined) the “activity change, negative = inhibition” value was inactive: 5.05%. For `COc1ccc(NC(=O)CCOc2ccc(C)cc2)c(OC)c1`, the Potency was inconclusive: 0.178 µM [inhibitor, full curve, poor fit]. With `COc1ccccc1NC(c1cccnc1)c1ccc2cccnc2c1O` (centres undefined) the Potency was inconclusive: 35.5 µM [inhibitor, single point]. For `COc1ccc(NC(=O)CCOc2ccccc2F)cc1S(=O)(=O)N1CCCCC1`, the Potency was inconclusive: 11.2 µM [inhibitor, partial curve, poor fit]. For `Cc1ccc(NS(=O)(=O)c2ccc(C(=O)NCC(c3ccco3)N3CCCCC3)cc2)cc1` (centres undefined), the Potency was inconclusive: 15.8 µM [inhibitor, single point]. In the case of `O=C(CCN1C(=O)S/C(=C\c2ccccc2)C1=O)N1CCCCC1`, the Potency is reported as inconclusive: 35.5 µM [activator, single point]. In the case of `CCCN(C(=O)COC(=O)c1nc2nccc(C)n2n1)C1CCS(=O)(=O)C1` (centres undefined), the “activity change, negative = inhibition” value is reported as inactive: -9.59% [at 46.1 µM]. With `O=C(CSc1nc2cccnc2n1Cc1ccccc1)NC1CCCCC1` the “activity change, negative = inhibition” value was inactive: -21%. For `NC(=O)c1ccsc1NC(=O)c1ccc(S(=O)(=O)N2CCCc3ccccc32)cc1`, the Potency was inconclusive: 29.1 µM [inhibitor, single point]. In the case of `CC12C=C(C=CCCc3ccco3)C(C)(C1)C(CCc1ccco1)CC2=O` (centres undefined), the “activity change, negative = inhibition” value is reported as inactive: -5.79% [at 14.2 µM]. In the case of `NS(=O)(=O)c1ccc(CNC(=O)c2cc(=O)[nH]c3ccccc23)cc1`, the “activity change, negative = inhibition” value is reported as inactive: 7.15% [at 46.1 µM]. For `COc1cc(OC)c(C2=NOC(C(=O)O)C2)cc1Cl` (centres undefined), the “activity change, negative = inhibition” value was inactive: -6.06%. For `CC(=O)Nc1ccc(N2CCc3c(C)c(C#N)c4nc5ccccc5n4c32)cc1`, the “activity change, negative = inhibition” value was inactive: -38.2%. In the case of `Cc1noc2ncnc(Sc3c(Cl)cccc3Cl)c12`, the Potency is reported as inconclusive: 17.8 µM [inhibitor, single point]. With `O=C(Nc1cnccc1C(F)(F)F)NC1CCCCC1` the “activity change, negative = inhibition” value was inactive: -6.44% [at 46.1 µM]. In the case of `O=C1c2ccccc2C(=O)C1(c1ccccc1)N1CCN(c2cccc(C(F)(F)F)c2)CC1`, the Potency is reported as inconclusive: 35.5 µM [inhibitor, single point]. In the case of `CCOc1ccccc1NC(=O)CCc1nc(-c2cccc(C)c2)no1`, the “activity change, negative = inhibition” value is reported as inactive: 1.38% [at 46.1 µM]. For `Cc1ccccc1OCC(O)Cn1c(NCc2ccccc2)nc2c1c(=O)[nH]c(=O)n2C` (centres undefined), the Potency was inconclusive: 18.3 µM [inhibitor, partial curve, poor fit]. With `COc1cc(CNc2ccc3[nH]c(=O)[nH]c3c2)ccc1OCc1ccc(C)cc1` the “activity change, negative = inhibition” value was inactive: -23.9% [at 46.1 µM]. For `CC(C)(C)OC(=O)NCC1CCC(C(=O)NC[C@H](CC(=O)O)c2ccc(Cl)cc2)CC1` (some centres undefined), the Potency was inconclusive: 25.1 µM [activator, single point]. With `Cc1ccc(C(=O)NNC(=O)CSc2n[nH]c(-c3cccnc3)n2)cc1` the “activity change, negative = inhibition” value was inactive: 3.8% [at 46.1 µM]. In the case of `C=C1C(=O)OC2CC3(C)OC3CCC(C)=CC(OC(C)=O)C12` (centres undefined), the Potency is reported as inconclusive: 11.2 µM [inhibitor, single point]. For `COC(=O)c1cn(Cc2cccc(C)c2)nn1`, the Potency was inconclusive: 1.78 µM [inhibitor, partial curve, poor fit].
